# Measurements reported in article PMC4299599, “Quantification of cytosolic interactions identifies Ede1 oligomers as key organizers of endocytosis” (Molecular Systems Biology, 2014).
# These are yes or no findings as the source states them, for the method shown.
# T1: Ede1 (S. cerevisiae) (UniProt P34216)
# T1 sequence: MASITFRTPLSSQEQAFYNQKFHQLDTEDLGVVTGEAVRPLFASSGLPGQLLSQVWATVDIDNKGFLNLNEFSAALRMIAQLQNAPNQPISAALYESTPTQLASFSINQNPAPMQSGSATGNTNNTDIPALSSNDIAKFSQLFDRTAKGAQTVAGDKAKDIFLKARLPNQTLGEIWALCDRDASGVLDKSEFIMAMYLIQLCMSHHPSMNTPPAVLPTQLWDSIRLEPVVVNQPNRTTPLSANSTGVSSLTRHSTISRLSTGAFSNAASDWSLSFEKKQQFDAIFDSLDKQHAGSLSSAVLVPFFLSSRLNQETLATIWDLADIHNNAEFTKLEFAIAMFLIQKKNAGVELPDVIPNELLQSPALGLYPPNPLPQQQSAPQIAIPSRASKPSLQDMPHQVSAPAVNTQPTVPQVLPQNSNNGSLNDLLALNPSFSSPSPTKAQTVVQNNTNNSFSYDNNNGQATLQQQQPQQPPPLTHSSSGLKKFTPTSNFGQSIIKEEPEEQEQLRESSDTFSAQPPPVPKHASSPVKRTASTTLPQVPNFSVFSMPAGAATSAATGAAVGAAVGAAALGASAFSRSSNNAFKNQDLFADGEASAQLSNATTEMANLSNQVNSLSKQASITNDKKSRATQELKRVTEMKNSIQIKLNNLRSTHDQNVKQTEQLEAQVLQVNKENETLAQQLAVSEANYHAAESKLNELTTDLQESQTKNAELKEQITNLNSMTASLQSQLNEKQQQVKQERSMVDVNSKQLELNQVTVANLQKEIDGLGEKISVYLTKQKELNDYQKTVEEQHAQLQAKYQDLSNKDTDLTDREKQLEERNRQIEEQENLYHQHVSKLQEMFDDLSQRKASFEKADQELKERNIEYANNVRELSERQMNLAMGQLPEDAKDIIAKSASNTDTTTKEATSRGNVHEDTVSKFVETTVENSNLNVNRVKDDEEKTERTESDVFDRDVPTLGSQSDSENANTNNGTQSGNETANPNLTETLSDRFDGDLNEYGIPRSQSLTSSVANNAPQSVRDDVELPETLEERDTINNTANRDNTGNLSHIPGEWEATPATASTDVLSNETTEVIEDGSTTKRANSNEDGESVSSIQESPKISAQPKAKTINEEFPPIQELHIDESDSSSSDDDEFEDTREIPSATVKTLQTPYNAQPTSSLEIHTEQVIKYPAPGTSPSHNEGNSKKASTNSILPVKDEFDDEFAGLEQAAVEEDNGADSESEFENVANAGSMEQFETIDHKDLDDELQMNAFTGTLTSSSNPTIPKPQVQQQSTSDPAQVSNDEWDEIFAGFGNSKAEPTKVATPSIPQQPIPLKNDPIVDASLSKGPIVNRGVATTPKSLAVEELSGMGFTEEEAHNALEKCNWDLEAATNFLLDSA
# B1: Ent1 (protein, UniProt Q12518 1-454)
# chain: MSKQFVRSAKNLVKGYSSTQVLVRNATSNDNHQVSKDSLIELAEKSYDSADFFEIMDMLDKRLNDKGKYWRHIAKALTVIDYLIRFGSENCVLWCRENLYIIKTLKEFRHEDDEGIDQGQIVRVKAKELTALLSDDERLNEERNMNIKGRNRKGRRRRGTGRSDENDDDLQRAISASRLTAEEDERRRKQDEDYETALQLSKEEEELKRLQDLQRMQQQQGQQQLQQPMYYDIFGNPITPEEYAQFQLQQQQQQQQQQLQQQPMYYDVFGNPITPEELAQFQQQQQLQEQQYLASMQQQQQAMSNNPFAKSEQSSSSPKRNQLVAASSPQQLQQQKQQEPLIQNRTGNQSMTDKYSKLNELLATGTGIDTFGNVGEARIPAQHTKTGTFINSQGTGYRQVSDDPNHNPFLNSQYTGLPSTSVVPTQTGYGFGNQSQQQSQNNGSNNRGYTLIDL
# B2: Yap1801 (protein, UniProt P38856 1-637)
# chain: MTTYFKLVKGATKIKSAPPKQKYLDPILLGTSNEEDFYEIVKGLDSRINDTAWTIVYKSLLVVHLMIREGSKDVALRYYSRNLEFFDIENIRGSNGSASGDMRALDRYDNYLKVRCREFGKIKKDYVRDGYRTLKLNSGNYGSSRNKQHSINIALDHVESLEVQIQALIKNKYTQYDLSNELIIFGFKLLIQDLLALYNALNEGIITLLESFFELSHHNAERTLDLYKTFVDLTEHVVRYLKSGKTAGLKIPVIKHITTKLVRSLEEHLIEDDKTHNTFVPVDSSQGSAGAVVAKSTAQERLEQIREQKRILEAQLKNEQVAISPALTTVTAAQSYNPFGTDSSMHTNIPMAVANQTQQIANNPFVSQTQPQVMNTPTAHTEPANLNVPEYAAVQHTVNFNPVQDAGVSAQQTGYYSINNHLTPTFTGAGFGGYSVSQDTTAASNQQVSHSQTGSNNPFALHNAATIATGNPAHENVLNNPFSRPNFDEQNTNMPLQQQIISNPFQNQTYNQQQFQQQKMPLSSINSVMTTPTSMQGSMNIPQRFDKMEFQAHYTQNHLQQQQQQQQQQQQQQQQQPQQGYYVPATAGANPVTNITGTVQPQNFPFYPQQQPQPEQSQTQQPVLGNQYANNLNLIDM
# Biological target: T1, Ede1 (S. cerevisiae)
# Assay: condition: 1000 nM (only Kdeff-values < 1000 nM are shown); fluorescence cross-correlation spectroscopy (FCCS); in the cytoplasm of living yeast cells; first-named protein green (3myeGFP or 1myeGFP; eGFP for Don1), second red (3mCherry); self-interaction in diploid strains with one allele of each colour; apparent or effective KD (Kdeff) from single-cell measurements; only Kdeff values < 1000 nM are shown; values for self-interactions are upper limits
row,Binder,binding
1,B1,no binding
2,B2,no binding
